Reference: publication PMC8880913
No constants are given. Whether binding was seen depends on the method and setting. In cells and extracts the contact can be indirect. A yes stands for co-enrichment or nearness to the bait. Other partners may have been found. Tags and fused reporters may be left off the sequences shown.

Chains of the proteins cited; added tags and fusions are not shown.
UniProt P10238: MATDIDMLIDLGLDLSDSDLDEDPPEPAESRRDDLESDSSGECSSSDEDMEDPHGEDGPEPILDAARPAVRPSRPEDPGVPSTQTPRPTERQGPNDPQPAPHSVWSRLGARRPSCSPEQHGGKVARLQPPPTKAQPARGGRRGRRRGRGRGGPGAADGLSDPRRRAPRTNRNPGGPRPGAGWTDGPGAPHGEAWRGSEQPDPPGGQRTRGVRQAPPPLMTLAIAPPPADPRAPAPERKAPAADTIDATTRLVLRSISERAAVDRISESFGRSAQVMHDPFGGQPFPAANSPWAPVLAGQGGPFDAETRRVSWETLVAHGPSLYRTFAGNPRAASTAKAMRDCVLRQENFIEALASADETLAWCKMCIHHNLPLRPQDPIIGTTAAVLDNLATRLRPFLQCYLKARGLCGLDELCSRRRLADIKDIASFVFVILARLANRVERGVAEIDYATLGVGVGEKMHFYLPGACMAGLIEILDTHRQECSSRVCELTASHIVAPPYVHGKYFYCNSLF

Biological target: T1, Flag-tagged MOV10 (Moloney leukemia virus 10 protein) (human) (UniProt Q9HCE1)
T1 sequence: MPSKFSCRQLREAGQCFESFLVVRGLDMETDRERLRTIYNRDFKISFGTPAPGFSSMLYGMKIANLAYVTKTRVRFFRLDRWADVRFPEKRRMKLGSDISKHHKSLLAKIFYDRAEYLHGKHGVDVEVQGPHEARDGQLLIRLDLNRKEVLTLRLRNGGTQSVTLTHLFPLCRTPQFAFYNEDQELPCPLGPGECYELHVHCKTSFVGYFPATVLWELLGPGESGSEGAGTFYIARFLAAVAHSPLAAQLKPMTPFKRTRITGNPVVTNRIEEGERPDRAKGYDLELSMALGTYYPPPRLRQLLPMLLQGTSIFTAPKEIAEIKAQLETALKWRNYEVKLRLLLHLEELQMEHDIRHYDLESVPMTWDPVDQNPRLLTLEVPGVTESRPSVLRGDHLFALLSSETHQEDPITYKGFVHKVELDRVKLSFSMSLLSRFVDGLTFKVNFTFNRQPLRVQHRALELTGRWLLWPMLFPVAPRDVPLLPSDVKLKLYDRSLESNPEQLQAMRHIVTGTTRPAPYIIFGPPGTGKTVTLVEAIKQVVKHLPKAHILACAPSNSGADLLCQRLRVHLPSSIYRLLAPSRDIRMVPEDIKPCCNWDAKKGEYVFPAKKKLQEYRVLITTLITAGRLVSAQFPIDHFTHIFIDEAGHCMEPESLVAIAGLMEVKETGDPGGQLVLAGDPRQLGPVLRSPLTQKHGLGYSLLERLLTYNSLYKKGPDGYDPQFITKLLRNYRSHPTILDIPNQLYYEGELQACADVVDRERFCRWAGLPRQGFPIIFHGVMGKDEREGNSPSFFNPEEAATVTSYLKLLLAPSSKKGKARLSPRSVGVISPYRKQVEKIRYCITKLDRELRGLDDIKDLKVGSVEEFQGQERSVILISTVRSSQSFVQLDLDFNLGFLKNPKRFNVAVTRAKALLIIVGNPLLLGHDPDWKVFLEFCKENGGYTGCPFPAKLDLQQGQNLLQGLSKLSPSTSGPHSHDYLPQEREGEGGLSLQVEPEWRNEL
Assay: affinity purification with mass spectrometry; MOV10 immunoprecipitated from transfected, KOS-infected Neuro-2a cells (anti-FLAG beads; mouse IgG-agarose as control); LC-MS/MS, label-free iBAQ

Substance: HSV-1 ICP27 expressed during HSV-1 infection (from UniProt P10238 1-512)
- binding: binds
